Reference: article PMC12137620, “Targeting the MDK/c‐Myc complex to overcome temozolomide resistance in glioma” (Clinical and Translational Medicine, 2025)

Sequences of proteins named here, by UniProt entry; tags and fusion partners are left off.
UniProt P01106: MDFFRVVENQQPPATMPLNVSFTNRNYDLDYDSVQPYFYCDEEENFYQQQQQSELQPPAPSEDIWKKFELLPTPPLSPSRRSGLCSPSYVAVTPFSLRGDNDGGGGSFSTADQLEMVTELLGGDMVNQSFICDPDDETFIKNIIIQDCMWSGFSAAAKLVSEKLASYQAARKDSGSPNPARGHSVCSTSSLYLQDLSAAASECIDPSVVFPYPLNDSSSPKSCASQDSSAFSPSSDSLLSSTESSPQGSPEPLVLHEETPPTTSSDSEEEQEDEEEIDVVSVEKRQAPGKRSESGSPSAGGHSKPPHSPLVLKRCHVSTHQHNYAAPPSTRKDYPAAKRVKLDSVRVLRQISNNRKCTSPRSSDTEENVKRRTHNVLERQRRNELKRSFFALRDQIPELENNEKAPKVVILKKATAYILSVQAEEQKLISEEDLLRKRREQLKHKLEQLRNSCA

T1: FLAG-MDK (midkine) (human) (UniProt P21741)
T1 sequence: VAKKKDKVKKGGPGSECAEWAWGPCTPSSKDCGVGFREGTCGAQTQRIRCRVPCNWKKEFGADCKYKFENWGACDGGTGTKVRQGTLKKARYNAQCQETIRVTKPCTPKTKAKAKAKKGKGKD

B1: USP22, endogenous in glioma cells (enzyme, UniProt Q9UPT9 1-525)
chain: MVSRPEPEGEAMDAELAVAPPGCSHLGSFKVDNWKQNLRAIYQCFVWSGTAEARKRKAKSCICHVCGVHLNRLHSCLYCVFFGCFTKKHIHEHAKAKRHNLAIDLMYGGIYCFLCQDYIYDKDMEIIAKEEQRKAWKMQGVGEKFSTWEPTKRELELLKHNPKRRKITSNCTIGLRGLINLGNTCFMNCIVQALTHTPLLRDFFLSDRHRCEMQSPSSCLVCEMSSLFQEFYSGHRSPHIPYKLLHLVWTHARHLAGYEQQDAHEFLIAALDVLHRHCKGDDNGKKANNPNHCNCIIDQIFTGGLQSDVTCQVCHGVSTTIDPFWDISLDLPGSSTPFWPLSPGSEGNVVNGESHVSGTTTLTDCLRRFTRPEHLGSSAKIKCSGCHSYQESTKQLTMKKLPIVACFHLKRFEHSAKLRRKITTYVSFPLELDMTPFMASSKESRMNGQYQQPTDSLNNDNKYSLFAVVNHQGTLESGHYTSFIRQHKDQWFKCDDAIITKASIKDVLDSEGYLLFYHKQFLEYE

Target: T1, FLAG-MDK (midkine) (human)
Assay: affinity purification with mass spectrometry; FLAG-MDK stably expressed in SF126 and U118MG cells; RIPA lysates; anti-FLAG magnetic beads; SDS-PAGE, silver stain, differential band (50-70 kDa) cut and identified by Orbitrap mass spectrometry

Row | Molecule | binding
1 | c-Myc, endogenous in glioma cells (from UniProt P01106 1-454) | binds
2 | B1 | binds

Results are given in words; binding and its absence hold for the method and conditions named. Binding seen in cells or lysates may run through a third protein. Here binding means that the protein was enriched with, or labelled near, the bait; the list need not be complete. Tags and fused reporters may be left off the sequences shown.
